Test results: patent US10314305B2, “Liquid agrochemical compositions comprising a polymeric thickener and an alcohol-containing solvent system, and liquid herbicidal compositions having an alcohol-containing solvent system” (Syngenta Participations AG, priority 2012, dated 2019)
At least one structure is not confirmed: it was looked up by name or label, or the drawing left a doubt.

Assay: Solubility of active ingredients in solvents
Conditions: 20° C.

## CCc1cc(C)cc(CC)c1-c1c(OC(=O)C(C)(C)C)n2n(c1=O)CCOCC2 [pinoxaden, 8-(2,6-diethyl-4-methylphenyl)-1,2,4,5-tetrahydro-7-oxo-7H-pyrazolo[1,2-d][1,4,5]oxadiazepin-9-yl 2,2-dimethylpropionate]
2-ethyl-hexanol
  pinoxaden dissolves in 2-ethyl-hexanol (up to): ca. 18.7 % w/w
Benzyl alcohol
  pinoxaden dissolves in benzyl alcohol (up to): about 55 % w/w
cyclohexanol
  pinoxaden dissolves in cyclohexanol (up to): ca. 19.8 % w/w
Diacetone alcohol
  pinoxaden dissolves in diacetone alcohol (up to): ca. 27.5 % w/w
Dipropylene glycol
  pinoxaden dissolves in dipropylene glycol (up to): ca. 11.4 % w/w
Hexylene glycol (2-methyl-2,4-pentanediol)
  pinoxaden dissolves in hexylene glycol (up to): ca. 21.1 % w/w
n-hexanol
  pinoxaden dissolves in n-hexanol (up to): 25-30 % w/w
n-octanol
  pinoxaden dissolves in n-octanol (up to): ca. 15.3 % w/w
